Test results from US20240102021A1.
These are yes or no findings as the source states them, for the method shown. Binding seen in cells or lysates may run through a third protein. Some binding calls cover weakened binding; strength is not graded here.

Protein sequences, listed by entry. Tags and fused reporters are not part of them.
UniProt P41968: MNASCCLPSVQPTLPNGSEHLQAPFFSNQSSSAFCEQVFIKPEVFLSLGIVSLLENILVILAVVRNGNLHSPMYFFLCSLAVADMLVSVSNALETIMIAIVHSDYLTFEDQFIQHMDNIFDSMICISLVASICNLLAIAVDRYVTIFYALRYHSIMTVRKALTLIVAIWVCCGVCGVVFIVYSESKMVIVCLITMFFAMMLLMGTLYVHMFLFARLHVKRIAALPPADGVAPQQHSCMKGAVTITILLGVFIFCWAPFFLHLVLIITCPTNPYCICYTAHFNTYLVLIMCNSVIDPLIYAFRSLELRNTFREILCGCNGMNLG
UniProt P32245: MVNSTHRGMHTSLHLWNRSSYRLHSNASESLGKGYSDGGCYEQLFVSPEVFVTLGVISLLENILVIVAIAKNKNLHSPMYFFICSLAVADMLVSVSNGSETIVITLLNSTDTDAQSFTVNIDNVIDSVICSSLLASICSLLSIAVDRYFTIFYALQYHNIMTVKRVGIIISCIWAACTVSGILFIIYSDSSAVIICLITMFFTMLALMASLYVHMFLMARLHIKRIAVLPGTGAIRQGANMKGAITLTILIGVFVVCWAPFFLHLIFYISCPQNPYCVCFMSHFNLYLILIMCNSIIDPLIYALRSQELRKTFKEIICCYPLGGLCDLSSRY
UniProt Q9H1Y3: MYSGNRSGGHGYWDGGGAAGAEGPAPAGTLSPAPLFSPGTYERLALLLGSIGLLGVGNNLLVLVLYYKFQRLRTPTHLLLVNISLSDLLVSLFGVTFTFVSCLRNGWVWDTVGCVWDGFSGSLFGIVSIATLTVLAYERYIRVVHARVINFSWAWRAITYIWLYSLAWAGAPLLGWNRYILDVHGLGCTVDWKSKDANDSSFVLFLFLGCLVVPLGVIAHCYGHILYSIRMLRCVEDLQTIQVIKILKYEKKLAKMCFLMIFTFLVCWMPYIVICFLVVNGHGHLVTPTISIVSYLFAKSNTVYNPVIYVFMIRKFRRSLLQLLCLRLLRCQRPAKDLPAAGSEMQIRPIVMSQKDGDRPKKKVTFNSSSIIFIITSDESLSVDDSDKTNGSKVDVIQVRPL

How the values were obtained:
MC3R-nHA [1] = biological target: MC3R-nHA (UniProt P41968); test: co-immunoprecipitation, GT1-7 cells, IP of OPN3-FLAG, blot anti-HA
MC4R-nHA [2] = biological target: MC4R-nHA (UniProt P32245); test: as above
MC3R-nHA [3] = biological target: MC3R-nHA (UniProt P41968); test: co-immunoprecipitation, GT1-7 mouse hypothalamic neurons
MC4R-nHA [4] = biological target: MC4R-nHA (UniProt P32245); test: as above
MC3R-nHA [5] = biological target: MC3R-nHA (UniProt P41968); test: co-immunoprecipitation, HEK293 cells, IP anti-FLAG, blot anti-HA
MC4R-nHA [6] = biological target: MC4R-nHA (UniProt P32245); test: as above

binding (MC3R-nHA [1]): binds
binding (MC4R-nHA [2]): binds
binding (MC3R-nHA [3]): binds
binding (MC4R-nHA [4]): binds
binding (MC3R-nHA [5]): binds
binding (MC4R-nHA [6]): binds
Substance: OPN3-cFLAG (from UniProt Q9H1Y3 1-402) (receptor)
